In this assay the target is Human CD3e/g protein (human). Nature of the assay: ELISA, coated hCD3e/g. (An ELISA detects its analyte on a solid surface through an enzyme-linked reagent.)

Substitutions are numbered along the chain they refer to. These are yes or no findings as the source states them, for the method shown. Binding can be weak; no strength is given.

B1: mAb001 (antibody, V domains shown)
VH: QVQLQQSGPELVKPGASVKISCKASGYSFTNYYMHWVKQRPGQGLEWIGWTYPGNNNIKYNEKFKGKATLTADTSSSTAYMQLSSLTSEDSAVYYCARDGYGYYFFDYWGQGIILTVSS
VL: DIVMSQSPSSLAVSAGEKVTMSCKSSQSLLNNRTRKNYLAWYQQKPGQSPKLLIYWASTRESGVPDRFTGSGSGTDFTLTISSVQAEDLAIYYCKQSYTLRTFGGGTKLAIK
For B1, the binding result is recorded as “binds”.

B2: mAb007 (antibody, V domains shown)
VH: QVQLQQSGPELVKPGASVKISCKASGSTFTDNYIHWVKQRPGQGLEWIGWIYPGSVNIKYNEKFKDKATLTADTSSTTAYMQLSSLSSEDSAIYYCARDISRYYFDYWGQGTTLTVSS
VL: B1 VL with K18R, S22N, N32S, I91V, Y98F, T99I
On to B2, for which the binding entry is “binds”.
